For five molecules, binding results are on record in US20120135912A1 (PERSEID THERAPEUTICS, published 2012).

Sequences and labels used below:
B1: 2D-VCAM-1 variant Clone 59 (ligand)
chain: FKIETTPESRYLAQIGDSVSLTCSTTGCESPFFSWRPLLDSPLNGKVTNEGTTSTLTMNPVSFGNEHSYLCTATCESRKLEKGIQVEIYSFPKDPEIHLSGPLEAGKPITVKCSVADVYPFDRLEIDLLKGDHLMKSQEFFEDAAWKSLETKSLEVTFTPVIEDIGKVLVCRAKLHIDEMDSVPTVRQAVKELQVYISP
notes: also called Clone 059; not shown: His tag
B2: 2D-VCAM-1 variant Clone 46 (ligand)
chain: B1 chain with L38Q, S41A, F141L, A145D, W146R
notes: also called Clone 046; not shown: His tag
B3: 2D-VCAM-1 variant Clone 47 (ligand)
chain: B1 chain with F141L, A145D, W146R
notes: also called Clone 047; not shown: His tag
B4: 2D-VCAM-1 variant Clone 146 (ligand, not shown: small tags and cut ends)
chain: B1 chain with F32L, S34F, T74R, K79S, F141L, A145D, W146R
B5: human 2D-VCAM-1 (ligand)
chain: B1 chain with P37T, L38Q, L39I, F141L, A145D, W146R
notes: also called wild type 2D-VCAM-1; wt-2D-VCAM-1; not shown: His tag

Changes are numbered by the printed parent chain. These are yes or no findings as the source states them, for the method shown. For part of these data: A result given as binding can be weak or reduced; the word gives no strength.

One test addresses guinea pig VLA4 on guinea pig splenocytes (guinea pig). Briefly: flow cytometry on guinea pig splenocytes, 50 ug/ml, 1 mM MnCl2 (activated VLA4).
As for B1, the binding entry was “binds”.
Same read-out and setting: then B2, with “binds”; and B3, with “binds”; and B4, with “binds”.

For the next test the target is unchanged. Briefly: flow cytometry on guinea pig splenocytes, polypeptide at 50 ug/ml, detected with biotinylated anti-human VCAM-1 and streptavidin-PE, with and without 1 mM MnCl2 (Example 21A).
Take B1: the binding result was “binds”.
Still for that read-out and setting: next, B2: “binds”.
On the same count and under the same terms, next, B3: “binds”; B4: “binds”.

The next test has the same target. Briefly: flow cytometry on guinea pig splenocytes, with and without 1 mM MnCl2. For orientation: Flow cytometry measures light scatter and fluorescence of single cells or particles in a stream.
B5: the binding result is on record as “no binding (tested: 50 ug/ml)”.
